According to patent US6815187B1, “Stimulation of angiogenesis via syndecan-4 cytoplasmic domain signaling pathway” (Beth Israel Deaconess Medical Center, priority 1998, dated 2004):

Experiment: Size-exclusion chromatography of syndecan-4 cytoplasmic tail peptides (oligomerization)
Format: physicochemical
Details: 300 μM peptide incubated with 350 μM PIP2

S4c-P: similar syndecan-4 cytoplasmic tail peptide with a phosphorylated Ser (RMKKKDEGSYDLGKKPIYKKAPTNEFYA)
elution profile: single peak
